In PubChem BioAssay AID248 (DTP/NCI, 2004):
The list shows only some results of the screen, not a fair sample: it gathers tests that were run many times, whatever their T/C, doses with no T/C, and many T/C values between a quarter and a half above the control. Further doses and runs are listed elsewhere. T/C: endpoint of the treated group in % of that of the vehicle group. Where survival is the endpoint, the PubChem record calls one and a half times the control and up active, and a quarter to a half above the control has no call in these data; cut-offs in other NCI protocols can differ. Schedule codes are those of the source, read here as Q, the interval in days (D) or hours (H), X, the number of doses. Some T/C values are followed by the survivors on the day toxicity was checked, most often the fifth; without a count, all were alive then. Some doses were run more than once; the results are listed from low to high. Brackets with × count equal records among those shown. Some schedules carry Z or #; the key to these is not given.

System: L1210 leukemia ip in BDF1 mice, survival T/C
Experiment: NCI In Vivo Anticancer Drug Screen. Data for tumor model L1210 Leukemia (intraperitoneal) in B6D2F1 (BDF1) mice
Details: T/C endpoint: mean survival time, higher T/C = longer survival

OCC1OC(n2cnc3c(=S)nc[nH]c32)C(O)C1O (configuration not stated)
T/C (dose: 20.0 mg/kg/injection, schedule: Q01DX009 (ip), vehicle: saline): 125 and 133 % of control
T/C (dose: 20.0 mg/kg/injection, schedule: Q01DX010 (ip), vehicle: saline): 133 % of control
T/C (dose: 37.5 mg/kg/injection, schedule: Q01DX009 (ip), vehicle: water): 147 % of control
T/C (dose: 40.0 mg/kg/injection, schedule: Q01DX009 (ip), vehicle: saline): 125, 128, 138, 140 % of control
T/C (dose: 40.0 mg/kg/injection, schedule: Q01DX010 (ip), vehicle: saline): 125 and 141 % of control
T/C (dose: 50.0 mg/kg/injection, schedule: Q01DX015 (ip), vehicle: carboxymethylcellulose (CMC)): 149 % of control
T/C (dose: 56.0 mg/kg/injection, schedule: Q03HX024 (ip), vehicle: clinical formulation): 142 % of control
T/C (dose: 56.0 mg/kg/injection, schedule: Q03HX024 (ip), vehicle: saline): 140 % of control
T/C (dose: 71.5 mg/kg/injection, schedule: Q01DX Z (ip), vehicle: carboxymethylcellulose (CMC)): 132 % of control
T/C (dose: 73.0 mg/kg/injection, schedule: Q01DX Z (ip), vehicle: carboxymethylcellulose (CMC)): 137 % of control
T/C (dose: 75.0 mg/kg/injection, schedule: Q01DX009 (ip), vehicle: water, evaluated on day 5): 137 % of control
T/C (dose: 75.0 mg/kg/injection, schedule: Q01DX009 (ip), vehicle: water, evaluated on day 6): 139 % of control
T/C (dose: 75.0 mg/kg/injection, schedule: Q01DX009 (ip), vehicle: water, evaluated on day 30): 137 and 139 % of control
T/C (dose: 75.0 mg/kg/injection, schedule: Q03HX024 (ip), vehicle: saline): 139 and 144 % of control
T/C (dose: 80.0 mg/kg/injection, schedule: Q01DX009 (ip), vehicle: saline): 138, 140, 142, 150 % of control
T/C (dose: 80.0 mg/kg/injection, schedule: Q01DX010 (ip), vehicle: saline): 141 and 144 % of control
T/C (dose: 83.0 mg/kg/injection, schedule: Q03HX024 (ip), vehicle: clinical formulation): 142 % of control
T/C (dose: 83.0 mg/kg/injection, schedule: Q03HX024 (ip), vehicle: saline): 134 % of control
T/C (dose: 100.0 mg/kg/injection, schedule: Q01DX005 (ip), vehicle: saline): 125, 127, 132, 134 % of control
T/C (dose: 100.0 mg/kg/injection, schedule: Q01DX009 (ip), vehicle: saline): 104, 111 [5 of 6 alive], 112, 115 [5 of 6 alive], 117, 118, 120, 122 [5 of 6 alive], 144, 148 % of control
T/C (dose: 100.0 mg/kg/injection, schedule: Q01DX015 (ip), vehicle: carboxymethylcellulose (CMC)): 144 % of control
T/C (dose: 125.0 mg/kg/injection, schedule: Q01DX015 (ip), vehicle: carboxymethylcellulose (CMC)): 141 % of control [8 of 10 alive]
T/C (dose: 125.0 mg/kg/injection, schedule: Q03HX024 (ip), vehicle: clinical formulation): 147 % of control
T/C (dose: 143.0 mg/kg/injection, schedule: Q01DX Z (ip), vehicle: carboxymethylcellulose (CMC)): 141 % of control (2×)
T/C (dose: 146.0 mg/kg/injection, schedule: Q01DX Z (ip), vehicle: carboxymethylcellulose (CMC)): 145 % of control
T/C (dose: 150.0 mg/kg/injection, schedule: Q01DX009 (ip), vehicle: water, evaluated on day 5): 147 % of control
T/C (dose: 150.0 mg/kg/injection, schedule: Q01DX009 (ip), vehicle: water, evaluated on day 6): 139 % of control
T/C (dose: 150.0 mg/kg/injection, schedule: Q01DX009 (ip), vehicle: water, evaluated on day 30): 139 and 147 % of control
T/C (dose: 150.0 mg/kg/injection, schedule: Q01DX015 (ip), vehicle: carboxymethylcellulose (CMC)): 147 % of control
T/C (dose: 150.0 mg/kg/injection, schedule: Q01DX Z (ip), vehicle: carboxymethylcellulose (CMC)): 134 % of control
T/C (dose: 150.0 mg/kg/injection, schedule: Q03HX024 (ip), vehicle: saline): 135 and 142 % of control [9 of 10 alive]
T/C (dose: 160.0 mg/kg/injection, schedule: Q01DX009 (ip), vehicle: saline): 154, 156, 160, 164 % of control
T/C (dose: 178.75 mg/kg/injection, schedule: Q01DX Z (ip), vehicle: carboxymethylcellulose (CMC)): 142 % of control
T/C (dose: 200.0 mg/kg/injection, schedule: Q01DX005 (ip), vehicle: saline): 110, 114, 116, 118, 119, 121, 123 (2×), 125, 126, 127, 141, 149 % of control
T/C (dose: 200.0 mg/kg/injection, schedule: Q01DX009 (ip), vehicle: carboxymethylcellulose (CMC)): 140 % of control
T/C (dose: 200.0 mg/kg/injection, schedule: Q01DX009 (ip), vehicle: saline): 114, 121, 123, 128, 130 (2×), 136, 140 % of control
T/C (dose: 214.5 mg/kg/injection, schedule: Q01DX Z (ip), vehicle: carboxymethylcellulose (CMC)): 142 % of control
